Assay results published in paper PMC7051184, “C9orf72 arginine-rich dipeptide repeat proteins disrupt karyopherin-mediated nuclear import” (eLife, 2020).
These are yes or no findings as the source states them, for the method shown. For some of these results: In cells and extracts the contact can be indirect. Some results given as binding are weak or reduced against the parent protein; the word gives no strength. One block for each binder: values may come before it.

The chains behind the UniProt entries cited, without tags or fusion partners. Residues count along the entry.
UniProt P02769, residues 25-607: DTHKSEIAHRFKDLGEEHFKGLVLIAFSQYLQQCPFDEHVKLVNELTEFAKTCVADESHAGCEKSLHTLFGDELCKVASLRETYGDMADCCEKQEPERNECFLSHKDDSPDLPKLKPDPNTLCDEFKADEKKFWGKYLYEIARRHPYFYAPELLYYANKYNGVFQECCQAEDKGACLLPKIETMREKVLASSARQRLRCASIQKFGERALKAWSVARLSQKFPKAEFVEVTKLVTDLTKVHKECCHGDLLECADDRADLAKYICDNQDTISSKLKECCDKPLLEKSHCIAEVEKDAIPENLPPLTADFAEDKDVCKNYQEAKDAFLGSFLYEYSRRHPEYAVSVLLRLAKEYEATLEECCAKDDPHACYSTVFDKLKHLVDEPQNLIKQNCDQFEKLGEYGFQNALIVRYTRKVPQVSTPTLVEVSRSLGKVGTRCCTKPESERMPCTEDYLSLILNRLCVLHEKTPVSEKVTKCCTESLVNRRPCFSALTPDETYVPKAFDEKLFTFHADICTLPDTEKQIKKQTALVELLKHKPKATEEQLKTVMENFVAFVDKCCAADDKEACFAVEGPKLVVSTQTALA
GST-Nup100(1-610), GLFG domain of yeast Nup100 (Q02629, residues 1-610): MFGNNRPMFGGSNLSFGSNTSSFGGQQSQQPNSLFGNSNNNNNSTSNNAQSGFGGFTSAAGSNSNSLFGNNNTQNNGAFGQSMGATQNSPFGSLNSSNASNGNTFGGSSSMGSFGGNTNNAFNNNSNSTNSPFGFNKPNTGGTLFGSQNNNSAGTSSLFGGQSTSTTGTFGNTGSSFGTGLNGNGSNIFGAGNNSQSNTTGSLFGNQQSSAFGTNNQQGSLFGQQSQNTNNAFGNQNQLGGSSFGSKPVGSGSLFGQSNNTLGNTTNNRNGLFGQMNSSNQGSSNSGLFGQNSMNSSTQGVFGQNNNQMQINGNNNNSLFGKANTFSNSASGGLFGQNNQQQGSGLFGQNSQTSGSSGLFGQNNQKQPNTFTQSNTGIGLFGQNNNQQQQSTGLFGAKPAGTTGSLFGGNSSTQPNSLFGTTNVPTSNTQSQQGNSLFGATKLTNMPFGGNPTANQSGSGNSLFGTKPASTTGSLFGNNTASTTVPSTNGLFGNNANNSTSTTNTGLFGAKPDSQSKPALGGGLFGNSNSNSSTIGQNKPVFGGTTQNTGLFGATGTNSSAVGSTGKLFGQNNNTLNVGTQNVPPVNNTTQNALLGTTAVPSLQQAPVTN
GST-Nup100(1-307), GLFG domain of yeast Nup100 (Q02629, residues 1-307): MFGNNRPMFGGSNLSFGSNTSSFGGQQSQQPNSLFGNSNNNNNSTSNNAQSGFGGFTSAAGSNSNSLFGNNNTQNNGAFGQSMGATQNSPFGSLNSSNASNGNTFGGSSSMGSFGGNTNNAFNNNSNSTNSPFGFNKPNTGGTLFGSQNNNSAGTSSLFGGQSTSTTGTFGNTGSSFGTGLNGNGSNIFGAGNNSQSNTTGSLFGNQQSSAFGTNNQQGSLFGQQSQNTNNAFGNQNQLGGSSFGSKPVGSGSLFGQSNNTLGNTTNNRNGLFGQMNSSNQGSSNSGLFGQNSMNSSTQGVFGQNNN
UniProt Q02630, residues 348-458: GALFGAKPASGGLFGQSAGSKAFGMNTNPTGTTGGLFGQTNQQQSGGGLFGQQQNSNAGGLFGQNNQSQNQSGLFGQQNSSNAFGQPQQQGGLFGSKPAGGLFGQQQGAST
UniProt Q14974: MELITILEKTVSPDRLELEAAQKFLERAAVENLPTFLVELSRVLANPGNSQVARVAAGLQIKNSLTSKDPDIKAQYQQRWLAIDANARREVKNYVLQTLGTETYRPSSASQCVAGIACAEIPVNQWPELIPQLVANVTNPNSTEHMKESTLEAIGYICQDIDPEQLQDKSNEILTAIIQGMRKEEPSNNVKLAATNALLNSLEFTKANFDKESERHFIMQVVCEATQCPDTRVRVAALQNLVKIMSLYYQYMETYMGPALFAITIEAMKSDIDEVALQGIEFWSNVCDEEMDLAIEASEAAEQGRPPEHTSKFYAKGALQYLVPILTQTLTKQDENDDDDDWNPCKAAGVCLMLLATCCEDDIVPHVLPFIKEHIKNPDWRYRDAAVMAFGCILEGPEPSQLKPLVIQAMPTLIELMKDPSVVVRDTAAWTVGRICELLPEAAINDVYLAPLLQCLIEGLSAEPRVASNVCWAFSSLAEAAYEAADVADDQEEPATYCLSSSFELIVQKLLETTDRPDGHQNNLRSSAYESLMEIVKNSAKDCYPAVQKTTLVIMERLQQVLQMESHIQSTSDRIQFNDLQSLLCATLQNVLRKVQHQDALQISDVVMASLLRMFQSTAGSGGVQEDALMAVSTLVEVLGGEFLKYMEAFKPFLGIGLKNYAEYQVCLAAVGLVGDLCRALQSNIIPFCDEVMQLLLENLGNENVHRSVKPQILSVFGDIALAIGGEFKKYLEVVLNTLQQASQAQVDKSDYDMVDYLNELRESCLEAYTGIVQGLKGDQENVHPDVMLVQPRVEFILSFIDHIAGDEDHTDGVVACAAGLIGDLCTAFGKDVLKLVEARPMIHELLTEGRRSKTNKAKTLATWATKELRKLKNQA

Key:
[1] = molecular target: T1, PR10, synthetic poly-proline-arginine 10-mer dipeptide repeat protein with C-terminal lysine and cysteine (human); experiment: co-sedimentation; 100 µM DPR 10-mers added to 2.5 mg/ml HEK lysate in transport buffer with energy, 1 hr; aggregates pelleted, rinsed; equal volumes of supernatant and pellet analysed by immunoblot; only the target purified
T1 sequence (peptide): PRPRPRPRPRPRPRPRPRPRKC

[2] = molecular target: T2, GR10, synthetic poly-glycine-arginine 10-mer dipeptide repeat protein with C-terminal lysine and cysteine (human); experiment: as above
T2 sequence (peptide): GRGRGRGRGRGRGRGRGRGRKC

[3] = molecular target: T1, PR10, synthetic poly-proline-arginine 10-mer dipeptide repeat protein with C-terminal lysine and cysteine (human); experiment: co-sedimentation; 50 µM GR10 or 25 µM PR10 added to 5 mg/ml HEK whole cell lysate (TRB with energy mix), 60 min at 37°C; aggregates pelleted at 16,000 g for 10 min, washed 2x; pellet analysed by LC/MS/MS; only the target purified
[4] = molecular target: T2, GR10, synthetic poly-glycine-arginine 10-mer dipeptide repeat protein with C-terminal lysine and cysteine (human); experiment: as above
[5] = molecular target: biotinylated BSA (bovine (from the name BSA)) (UniProt P02769); experiment: bead halo assay; biotinylated importin β or biotinylated BSA on neutravidin polystyrene beads; fluorescent prey (200 nM AF488-DPR, Rango) in binding buffer with assay buffer (EDTA, BSA, NaCl, Tween); room temperature, at least 30 min; confocal rim vs. background ratio; both purified
[6] = molecular target: GST-Nup100(1-610), GLFG domain of yeast Nup100 (S. cerevisiae) (UniProt Q02629); experiment: bead halo assay; GST-fused yeast FG- and GLFG-domains on glutathione polystyrene beads; AF488-DPRs in binding buffer; rim vs. background ratio, Nup116 F→A beads define the non-specific level; both purified
[7] = molecular target: GST-Nup116(348-458), GLFG domain of yeast Nup116 (S. cerevisiae) (UniProt Q02630); experiment: as above
[8] = molecular target: GST-Nup100(1-307), GLFG domain of yeast Nup100 (S. cerevisiae) (UniProt Q02629); experiment: as above
[9] = molecular target: GST-Nsp1(497-609), FxFG domain of yeast Nsp1 (S. cerevisiae) (UniProt P14907); experiment: as above
[10] = molecular target: biotinylated BSA (bovine (from the name BSA)) (UniProt P02769); experiment: bead halo assay; as a3, in the presence of 1 mg/ml neuron lysate; both purified
[11] = molecular target: biotinylated WT importin β-Avitag (human) (UniProt Q14974); experiment: as above

B1: Nup133 of HEK cell lysate (protein, UniProt Q8WUM0 1-1156)
chain: MFPAAPSPRTPGTGSRRGPLAGLGPGSTPRTASRKGLPLGSAVSSPVLFSPVGRRSSLSSRGTPTRMFPHHSITESVNYDVKTFGSSLPVKVMEALTLAEVDDQLTINIDEGGWACLVCKEKLIIWKIALSPITKLSVCKELQLPPSDFHWSADLVALSYSSPSGEAHSTQAVAVMVATREGSIRYWPSLAGEDTYTEAFVDSGGDKTYSFLTAVQGGSFILSSSGSQLIRLIPESSGKIHQHILPQGQGMLSGIGRKVSSLFGILSPSSDLTLSSVLWDRERSSFYSLTSSNISKWELDDSSEKHAYSWDINRALKENITDAIWGSESNYEAIKEGVNIRYLDLKQNCDGLVILAAAWHSADNPCLIYYSLITIEDNGCQMSDAVTVEVTQYNPPFQSEDLILCQLTVPNFSNQTAYLYNESAVYVCSTGTGKFSLPQEKIVFNAQGDSVLGAGACGGVPIIFSRNSGLVSITSRENVSILAEDLEGSLASSVAGPNSESMIFETTTKNETIAQEDKIKLLKAAFLQYCRKDLGHAQMVVDELFSSHSDLDSDSELDRAVTQISVDLMDDYPASDPRWAESVPEEAPGFSNTSLIILHQLEDKMKAHSFLMDFIHQVGLFGRLGSFPVRGTPMATRLLLCEHAEKLSAAIVLKNHHSRLSDLVNTAILIALNKREYEIPSNLTPADVFFREVSQVDTICECLLEHEEQVLRDAPMDSIEWAEVVINVNNILKDMLQAASHYRQNRNSLYRREESLEKEPEYVPWTATSGPGGIRTVIIRQHEIVLKVAYPQADSNLRNIVTEQLVALIDCFLDGYVSQLKSVDKSSNRERYDNLEMEYLQKRSDLLSPLLSLGQYLWAASLAEKYCDFDILVQMCEQTDNQSRLQRYMTQFADQNFSDFLFRWYLEKGKRGKLLSQPISQHGQLANFLQAHEHLSWLHEINSQELEKAHATLLGLANMETRYFAKKKTLLGLSKLAALASDFSEDMLQEKIEEMAEQERFLLHQETLPEQLLAEKQLNLSAMPVLTAPQLIGLYICEENRRANEYDFKKALDLLEYIDEEEDININDLKLEILCKALQRDNWSSSDGKDDPIEVSKDSIFVKILQKLLKDGIQLSEYLPEVKDLLQADQLGSLKSNPYFEFVLKANYEYYVQGQI
binding [1]: binds
binding [2]: binds

binding [1]: binds
binding [2]: binds
binding [3]: binds
binding [4]: binds
B2: Matrin-3 of HEK cell lysate (protein, UniProt P43243 1-847)
chain: MSKSFQQSSLSRDSQGHGRDLSAAGIGLLAAATQSLSMPASLGRMNQGTARLASLMNLGMSSSLNQQGAHSALSSASTSSHNLQSIFNIGSRGPLPLSSQHRGDADQASNILASFGLSARDLDELSRYPEDKITPENLPQILLQLKRRRTEEGPTLSYGRDGRSATREPPYRVPRDDWEEKRHFRRDSFDDRGPSLNPVLDYDHGSRSQESGYYDRMDYEDDRLRDGERCRDDSFFGETSHNYHKFDSEYERMGRGPGPLQERSLFEKKRGAPPSSNIEDFHGLLPKGYPHLCSICDLPVHSNKEWSQHINGASHSRRCQLLLEIYPEWNPDNDTGHTMGDPFMLQQSTNPAPGILGPPPPSFHLGGPAVGPRGNLGAGNGNLQGPRHMQKGRVETSRVVHIMDFQRGKNLRYQLLQLVEPFGVISNHLILNKINEAFIEMATTEDAQAAVDYYTTTPALVFGKPVRVHLSQKYKRIKKPEGKPDQKFDQKQELGRVIHLSNLPHSGYSDSAVLKLAEPYGKIKNYILMRMKSQAFIEMETREDAMAMVDHCLKKALWFQGRCVKVDLSEKYKKLVLRIPNRGIDLLKKDKSRKRSYSPDGKESPSDKKSKTDGSQKTESSTEGKEQEEKSGEDGEKDTKDDQTEQEPNMLLESEDELLVDEEEAAALLESGSSVGDETDLANLGDVASDGKKEPSDKAVKKDGSASAAAKKKLKKVDKIEELDQENEAALENGIKNEENTEPGAESSENADDPNKDTSENADGQSDENKDDYTIPDEYRIGPYQPNVPVGIDYVIPKTGFYCKLCSLFYTNEEVAKNTHCSSLPHYQKLKKFLNKLAEERRQKKET

binding [5]: no binding (tested: 200 nM)
binding [6]: binds weakly
binding [7]: no binding
binding [8]: binds weakly
binding [9]: no binding
binding [10]: no binding
B3: AF488-labeled GR10 (peptide)
peptide: GRGRGRGRGRGRGRGRGRGRKC
modifications: Alexa Fluor 488 C5-maleimide on the C-terminal cysteine
binding [11]: no binding (condition: with 1 mg/ml neuronal lysate)

binding [5]: no binding (tested: 200 nM)
binding [6]: binds weakly
binding [7]: no binding
binding [8]: binds weakly
B4: AF488-labeled PR10 (peptide)
peptide: PRPRPRPRPRPRPRPRPRPRKC
modifications: Alexa Fluor 488 C5-maleimide on the C-terminal cysteine

binding [1]: binds
binding [2]: binds
B5: Nup54 of HEK cell lysate (protein, UniProt Q7Z3B4 1-507)
chain: MAFNFGAPSGTSGTAAATAAPAGGFGGFGTTSTTAGSAFSFSAPTNTGTTGLFGGTQNKGFGFGTGFGTTTGTSTGLGTGLGTGLGFGGFNTQQQQQTTLGGLFSQPTQAPTQSNQLINTASALSAPTLLGDERDAILAKWNQLQAFWGTGKGYFNNNIPPVEFTQENPFCRFKAVGYSCMPSNKDEDGLVVLVFNKKETEIRSQQQQLVESLHKVLGGNQTLTVNVEGTKTLPDDQTEVVIYVVERSPNGTSRRVPATTLYAHFEQANIKTQLQQLGVTLSMTRTELSPAQIKQLLQNPPAGVDPIIWEQAKVDNPDSEKLIPVPMVGFKELLRRLKVQDQMTKQHQTRLDIISEDISELQKNQTTSVAKIAQYKRKLMDLSHRTLQVLIKQEIQRKSGYAIQADEEQLRVQLDTIQGELNAPTQFKGRLNELMSQIRMQNHFGAVRSEERYYIDADLLREIKQHLKQQQEGLSHLISIIKDDLEDIKLVEHGLNETIHIRGGVFS
